# From the supplement of paper PMC12819154, “High-throughput peptide-centric local stability assay extends protein–ligand identification to membrane proteins, tissues and bacteria” (Nature Structural & Molecular Biology, 2025)
# Chains of the proteins cited; added tags and fusions are not shown. Lines headed by an entry give the natural chain unless they say otherwise; changes in a name come on top.
# UniProt P52095: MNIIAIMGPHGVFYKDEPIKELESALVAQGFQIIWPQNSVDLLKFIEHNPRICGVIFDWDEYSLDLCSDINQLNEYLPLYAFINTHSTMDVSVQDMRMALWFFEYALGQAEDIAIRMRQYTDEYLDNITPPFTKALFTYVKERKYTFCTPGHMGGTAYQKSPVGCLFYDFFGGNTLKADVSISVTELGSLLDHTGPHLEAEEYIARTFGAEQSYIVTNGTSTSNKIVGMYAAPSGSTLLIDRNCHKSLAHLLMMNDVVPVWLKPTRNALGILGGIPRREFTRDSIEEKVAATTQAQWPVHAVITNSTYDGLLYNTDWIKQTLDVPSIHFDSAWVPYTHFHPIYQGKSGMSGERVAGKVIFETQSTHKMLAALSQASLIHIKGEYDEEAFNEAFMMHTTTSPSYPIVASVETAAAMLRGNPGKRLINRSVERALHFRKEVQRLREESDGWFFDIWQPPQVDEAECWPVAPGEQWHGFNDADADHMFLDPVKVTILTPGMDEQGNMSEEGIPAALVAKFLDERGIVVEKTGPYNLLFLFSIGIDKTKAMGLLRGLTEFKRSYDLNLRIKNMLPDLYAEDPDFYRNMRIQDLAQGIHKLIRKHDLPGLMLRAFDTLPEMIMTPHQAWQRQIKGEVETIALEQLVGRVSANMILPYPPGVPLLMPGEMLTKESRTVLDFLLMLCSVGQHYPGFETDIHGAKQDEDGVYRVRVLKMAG
# UniProt P52647: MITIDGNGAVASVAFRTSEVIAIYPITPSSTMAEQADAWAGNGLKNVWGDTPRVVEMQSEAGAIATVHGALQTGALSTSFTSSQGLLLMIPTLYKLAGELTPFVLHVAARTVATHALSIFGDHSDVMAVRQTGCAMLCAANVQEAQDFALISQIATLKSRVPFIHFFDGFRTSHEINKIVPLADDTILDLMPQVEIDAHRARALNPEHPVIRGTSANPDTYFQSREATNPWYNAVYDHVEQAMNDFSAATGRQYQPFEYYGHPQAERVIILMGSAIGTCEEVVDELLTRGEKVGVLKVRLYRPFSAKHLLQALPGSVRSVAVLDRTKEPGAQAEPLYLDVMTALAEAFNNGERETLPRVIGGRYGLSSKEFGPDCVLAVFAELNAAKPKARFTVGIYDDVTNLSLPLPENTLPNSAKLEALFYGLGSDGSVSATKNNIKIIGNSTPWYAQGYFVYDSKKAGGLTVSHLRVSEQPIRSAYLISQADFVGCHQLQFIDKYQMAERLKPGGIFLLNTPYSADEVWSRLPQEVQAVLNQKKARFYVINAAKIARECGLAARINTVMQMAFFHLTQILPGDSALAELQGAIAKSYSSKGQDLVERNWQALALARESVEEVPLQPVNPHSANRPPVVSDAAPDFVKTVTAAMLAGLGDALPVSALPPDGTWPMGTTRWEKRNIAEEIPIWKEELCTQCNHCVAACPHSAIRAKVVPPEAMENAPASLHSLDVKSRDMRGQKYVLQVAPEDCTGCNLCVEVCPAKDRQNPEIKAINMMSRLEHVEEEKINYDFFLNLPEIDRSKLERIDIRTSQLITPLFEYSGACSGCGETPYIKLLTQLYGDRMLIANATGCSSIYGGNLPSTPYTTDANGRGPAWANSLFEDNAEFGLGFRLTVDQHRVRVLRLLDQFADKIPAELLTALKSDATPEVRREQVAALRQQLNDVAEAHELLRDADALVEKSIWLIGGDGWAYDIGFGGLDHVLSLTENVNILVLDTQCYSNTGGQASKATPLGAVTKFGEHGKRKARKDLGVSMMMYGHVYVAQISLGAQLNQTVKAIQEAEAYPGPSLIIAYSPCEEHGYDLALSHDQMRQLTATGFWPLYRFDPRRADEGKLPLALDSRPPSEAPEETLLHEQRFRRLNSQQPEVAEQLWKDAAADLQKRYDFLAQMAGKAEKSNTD
# UniProt P46855: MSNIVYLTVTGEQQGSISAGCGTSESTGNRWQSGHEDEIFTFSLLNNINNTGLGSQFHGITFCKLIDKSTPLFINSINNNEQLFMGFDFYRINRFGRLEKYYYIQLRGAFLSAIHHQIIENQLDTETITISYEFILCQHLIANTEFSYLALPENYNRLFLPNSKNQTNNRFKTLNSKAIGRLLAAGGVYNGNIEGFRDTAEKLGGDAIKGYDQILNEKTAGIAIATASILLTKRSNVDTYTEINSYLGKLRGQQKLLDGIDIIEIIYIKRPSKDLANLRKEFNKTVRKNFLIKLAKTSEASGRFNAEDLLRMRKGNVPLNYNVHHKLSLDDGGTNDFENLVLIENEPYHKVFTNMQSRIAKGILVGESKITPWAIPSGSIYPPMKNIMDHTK
# UniProt P63201: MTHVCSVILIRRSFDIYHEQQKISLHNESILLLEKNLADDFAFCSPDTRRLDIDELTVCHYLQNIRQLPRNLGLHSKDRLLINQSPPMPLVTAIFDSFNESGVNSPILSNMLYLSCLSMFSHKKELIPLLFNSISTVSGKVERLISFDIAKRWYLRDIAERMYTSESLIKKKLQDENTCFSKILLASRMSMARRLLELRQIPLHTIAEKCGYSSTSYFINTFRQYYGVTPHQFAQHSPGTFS
# UniProt P45463: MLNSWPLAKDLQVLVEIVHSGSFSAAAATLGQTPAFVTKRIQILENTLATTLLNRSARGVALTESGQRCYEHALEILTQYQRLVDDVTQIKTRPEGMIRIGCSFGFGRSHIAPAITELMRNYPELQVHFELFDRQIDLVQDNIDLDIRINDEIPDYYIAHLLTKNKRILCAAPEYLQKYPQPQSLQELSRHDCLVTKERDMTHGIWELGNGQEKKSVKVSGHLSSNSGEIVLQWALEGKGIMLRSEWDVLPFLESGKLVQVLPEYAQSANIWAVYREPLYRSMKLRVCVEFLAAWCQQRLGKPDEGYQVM
# UniProt P56256: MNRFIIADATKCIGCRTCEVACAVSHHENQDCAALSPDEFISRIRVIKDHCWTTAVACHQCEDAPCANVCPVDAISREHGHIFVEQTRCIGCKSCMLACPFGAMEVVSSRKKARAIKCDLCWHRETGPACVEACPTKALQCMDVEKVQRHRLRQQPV
# UniProt P39409: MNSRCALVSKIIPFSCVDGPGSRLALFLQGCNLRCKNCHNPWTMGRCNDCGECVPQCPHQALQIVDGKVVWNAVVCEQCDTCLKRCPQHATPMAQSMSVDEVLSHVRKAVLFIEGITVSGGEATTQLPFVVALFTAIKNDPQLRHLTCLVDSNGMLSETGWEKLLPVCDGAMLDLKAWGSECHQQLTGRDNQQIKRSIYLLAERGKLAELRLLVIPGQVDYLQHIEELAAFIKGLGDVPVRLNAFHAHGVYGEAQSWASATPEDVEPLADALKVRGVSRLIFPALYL
# UniProt P41039: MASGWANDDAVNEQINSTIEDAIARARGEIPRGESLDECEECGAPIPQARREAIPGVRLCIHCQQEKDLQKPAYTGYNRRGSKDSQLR
# UniProt P39361: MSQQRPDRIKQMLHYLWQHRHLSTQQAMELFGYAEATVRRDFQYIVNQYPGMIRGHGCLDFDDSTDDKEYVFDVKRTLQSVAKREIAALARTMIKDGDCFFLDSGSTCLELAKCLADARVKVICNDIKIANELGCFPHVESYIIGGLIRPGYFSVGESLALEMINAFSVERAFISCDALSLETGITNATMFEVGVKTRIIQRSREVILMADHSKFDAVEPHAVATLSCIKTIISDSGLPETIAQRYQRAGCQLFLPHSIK
# UniProt P54746: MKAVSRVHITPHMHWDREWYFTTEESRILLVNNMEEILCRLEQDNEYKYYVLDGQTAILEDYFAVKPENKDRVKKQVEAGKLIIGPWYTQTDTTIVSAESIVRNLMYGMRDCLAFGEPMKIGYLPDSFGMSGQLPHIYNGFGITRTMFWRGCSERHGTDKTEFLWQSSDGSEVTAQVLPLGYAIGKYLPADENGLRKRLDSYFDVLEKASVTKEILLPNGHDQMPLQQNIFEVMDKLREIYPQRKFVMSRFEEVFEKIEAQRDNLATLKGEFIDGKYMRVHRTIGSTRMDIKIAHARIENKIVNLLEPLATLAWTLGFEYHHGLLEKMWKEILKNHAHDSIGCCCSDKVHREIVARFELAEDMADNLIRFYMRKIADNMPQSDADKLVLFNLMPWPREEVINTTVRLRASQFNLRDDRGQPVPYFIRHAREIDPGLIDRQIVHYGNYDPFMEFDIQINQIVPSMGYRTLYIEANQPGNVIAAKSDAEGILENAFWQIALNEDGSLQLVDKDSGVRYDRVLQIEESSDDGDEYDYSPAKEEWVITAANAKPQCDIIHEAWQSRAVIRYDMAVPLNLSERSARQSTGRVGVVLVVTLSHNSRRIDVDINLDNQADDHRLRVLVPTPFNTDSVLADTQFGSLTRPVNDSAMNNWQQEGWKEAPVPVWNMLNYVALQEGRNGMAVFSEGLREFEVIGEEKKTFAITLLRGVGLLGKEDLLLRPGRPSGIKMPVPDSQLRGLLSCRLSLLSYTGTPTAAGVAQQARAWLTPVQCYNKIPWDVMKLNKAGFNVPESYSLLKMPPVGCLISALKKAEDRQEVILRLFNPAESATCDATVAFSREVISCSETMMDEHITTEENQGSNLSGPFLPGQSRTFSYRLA
# UniProt P52127: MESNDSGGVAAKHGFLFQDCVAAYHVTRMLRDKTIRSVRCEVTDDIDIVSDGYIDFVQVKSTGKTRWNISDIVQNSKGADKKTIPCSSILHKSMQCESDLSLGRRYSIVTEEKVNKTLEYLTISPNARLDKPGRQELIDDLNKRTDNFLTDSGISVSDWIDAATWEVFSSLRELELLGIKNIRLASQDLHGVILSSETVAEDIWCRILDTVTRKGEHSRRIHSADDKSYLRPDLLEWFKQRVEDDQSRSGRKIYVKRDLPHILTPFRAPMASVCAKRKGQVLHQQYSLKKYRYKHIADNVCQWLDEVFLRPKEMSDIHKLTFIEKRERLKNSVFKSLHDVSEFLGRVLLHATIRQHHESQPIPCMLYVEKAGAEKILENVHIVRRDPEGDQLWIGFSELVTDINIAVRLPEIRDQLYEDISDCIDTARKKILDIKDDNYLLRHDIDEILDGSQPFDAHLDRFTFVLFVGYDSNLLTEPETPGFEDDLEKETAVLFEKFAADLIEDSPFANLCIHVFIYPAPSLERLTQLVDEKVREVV
# UniProt P46852: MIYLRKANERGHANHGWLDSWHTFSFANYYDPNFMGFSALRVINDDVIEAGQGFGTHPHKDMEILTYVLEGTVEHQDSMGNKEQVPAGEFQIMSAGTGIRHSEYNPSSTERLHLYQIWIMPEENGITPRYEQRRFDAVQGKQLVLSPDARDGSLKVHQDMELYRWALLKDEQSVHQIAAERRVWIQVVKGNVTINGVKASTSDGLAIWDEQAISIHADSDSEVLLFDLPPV
# UniProt P42597: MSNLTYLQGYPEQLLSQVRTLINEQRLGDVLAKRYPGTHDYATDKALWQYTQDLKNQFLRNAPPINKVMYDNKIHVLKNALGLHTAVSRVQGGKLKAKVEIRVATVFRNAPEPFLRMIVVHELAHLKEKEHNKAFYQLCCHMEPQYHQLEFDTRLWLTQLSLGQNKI
# UniProt P52130: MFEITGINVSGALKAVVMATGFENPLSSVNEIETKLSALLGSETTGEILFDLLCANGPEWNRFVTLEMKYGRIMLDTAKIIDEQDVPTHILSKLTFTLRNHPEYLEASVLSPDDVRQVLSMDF
# UniProt P52052: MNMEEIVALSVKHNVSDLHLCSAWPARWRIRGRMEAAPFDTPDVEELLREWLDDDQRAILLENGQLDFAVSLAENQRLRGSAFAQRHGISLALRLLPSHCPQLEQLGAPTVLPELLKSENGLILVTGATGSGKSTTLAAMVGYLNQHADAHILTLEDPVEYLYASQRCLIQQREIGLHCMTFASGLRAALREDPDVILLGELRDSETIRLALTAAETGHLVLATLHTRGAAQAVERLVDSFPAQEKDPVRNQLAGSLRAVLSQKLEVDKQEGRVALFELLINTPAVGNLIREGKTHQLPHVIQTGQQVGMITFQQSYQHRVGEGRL
# UniProt P46118: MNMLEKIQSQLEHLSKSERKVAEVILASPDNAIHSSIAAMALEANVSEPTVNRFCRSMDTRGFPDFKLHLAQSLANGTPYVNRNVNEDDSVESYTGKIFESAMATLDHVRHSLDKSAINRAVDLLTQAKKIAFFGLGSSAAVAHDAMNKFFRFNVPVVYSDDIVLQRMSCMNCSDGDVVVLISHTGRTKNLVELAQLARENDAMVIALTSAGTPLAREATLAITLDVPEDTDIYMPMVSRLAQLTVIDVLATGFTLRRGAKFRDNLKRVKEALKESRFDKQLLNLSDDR
# UniProt P39385: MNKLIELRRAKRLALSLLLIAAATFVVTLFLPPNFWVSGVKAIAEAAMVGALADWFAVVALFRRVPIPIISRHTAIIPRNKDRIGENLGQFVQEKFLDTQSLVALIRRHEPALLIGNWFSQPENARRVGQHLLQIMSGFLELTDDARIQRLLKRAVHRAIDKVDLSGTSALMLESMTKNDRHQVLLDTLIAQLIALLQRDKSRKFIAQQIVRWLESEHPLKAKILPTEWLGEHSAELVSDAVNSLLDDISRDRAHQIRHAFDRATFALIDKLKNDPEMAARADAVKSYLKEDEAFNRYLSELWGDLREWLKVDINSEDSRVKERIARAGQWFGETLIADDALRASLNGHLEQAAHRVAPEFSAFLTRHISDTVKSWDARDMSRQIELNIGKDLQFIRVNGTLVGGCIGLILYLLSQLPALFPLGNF
# This is a selection; strong and weak results do not stand in their true shares. Most values lie at the level of the controls, where differences are scatter.
# Compound: Nc1ncnc2c1ncn2[C@@H]1O[C@H](COP(=O)(O)OP(=O)(O)OP(=O)(O)O)[C@@H](O)[C@H]1O [adenosine 5'-triphosphate]
# Experiment: log2 fold change of tryptic peptide abundance, ligand vs vehicle (limited proteolysis) (log2 ratio); higher = more trypsin-susceptible (destabilized)
# Conditions: ligand concentration: 5 mM; sample: E. coli desalted lysate; replicate design: treated before aliquoting
# Method: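 HT-PELSA: desalted E. coli K-12 BW25113 lysate (with 12 mM MgCl2) incubated with 5 mM ATP (pH 7) or water for 30 min at 25 C, then a 4 min trypsin pulse at 22 C. Peptides were quantified by DIA-MS (4 replicates). Value is the peptide log2 fold change (treated/control); negative = stabilized. Scale: negative = ligand-stabilized region.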
# 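Note: lysate desalted by size exclusion to strip endogenous ATP, peptide intensities built from DIA-NN precursor signals, and peptides missing any value discarded before comparison.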
row,Target,log2 fold change
1,"UniProt P39363 (peptide sequence: ISQFIDSPQR, peptide start residue: 115)",0.167
2,"UniProt P46888 (peptide sequence: AVSIARPVK, peptide start residue: 23)",0.208
3,"UniProt P52095 (peptide sequence: VIFETQSTHK, peptide start residue: 358)",-0.223
4,"UniProt P64474 (peptide sequence: MSDGEKQEVLR, peptide start residue: 42)",-0.124
5,"UniProt P52647 (peptide sequence: ALNPEHPVIR, peptide start residue: 203)",0.437
6,"UniProt P46855 (peptide sequence: LGGDAIK, peptide start residue: 203)",-0.0419
7,"UniProt P63201 (peptide sequence: MYTSESLIK, peptide start residue: 162)",0.344
8,"UniProt P45463 (peptide sequence: SHIAPAITELMR, peptide start residue: 109)",0.418
9,"UniProt P56256 (peptide sequence: ALQCMDVEKVQR, peptide start residue: 138)",-0.407
10,"UniProt P39409 (peptide sequence: DNQQIKR, peptide start residue: 190)",-0.63
11,"UniProt P41039 (peptide sequence: LCIHCQQEKDLQKPAYTGYNR, peptide start residue: 59)",-0.615
12,"UniProt P39361 (peptide sequence: TLQSVAKR, peptide start residue: 77)",-0.0784
13,"UniProt P54746 (peptide sequence: KRLDSYFDVLEK, peptide start residue: 197)",-0.598
14,"UniProt P46474 (peptide sequence: TRGDSTPSSPFPTTER, peptide start residue: 971)",0.616
15,"UniProt P52096 (peptide sequence: VDPYTQKR, peptide start residue: 105)",-0.685
16,"UniProt P52127 (peptide sequence: ILENVHIVR, peptide start residue: 376)",1.04

row,Target,log2 fold change
1,"UniProt P45800 (peptide sequence: KLTPEER, peptide start residue: 44)",0.402
2,"UniProt P46852 (peptide sequence: RFDAVQGK, peptide start residue: 134)",0.503
3,"UniProt P42597 (peptide sequence: RYPGTHDYATDK, peptide start residue: 34)",0.347
4,"UniProt P42907 (peptide sequence: LAAFYDSPTGFR, peptide start residue: 254)",0.521
5,"UniProt P43533 (peptide sequence: KEPNTANSVDISQR, peptide start residue: 62)",-0.425
6,"UniProt P52130 (peptide sequence: IIDEQDVPTHILSK, peptide start residue: 80)",0.697
7,"UniProt P45464 (peptide sequence: AFKPASTNK, peptide start residue: 250)",-0.649
8,"UniProt P52052 (peptide sequence: EWLDDDQR, peptide start residue: 50)",-0.925
9,"UniProt P45753 (peptide sequence: TLLPWSR, peptide start residue: 58)",0.446
10,"UniProt P52007 (peptide sequence: FIHALDELSRR, peptide start residue: 20)",0.189
11,"UniProt P56614 (peptide sequence: GGSGNFAEDRER, peptide start residue: 6)",-0.00918
12,"UniProt P52074 (peptide sequence: NCETTCPSGVR, peptide start residue: 80)",-0.734
13,"UniProt P46118 (peptide sequence: KIAFFGLGSSAAVAHDAMNK, peptide start residue: 130)",0.483
14,"UniProt P39385 (peptide sequence: ASLNGHLEQAAHR, peptide start residue: 344)",-0.476
15,"UniProt P42616 (peptide sequence: ANCSDSQLR, peptide start residue: 59)",-0.125
16,"UniProt P42904 (peptide sequence: TPADFLTLVK, peptide start residue: 85)",0.239

# Looked up above:
# In log2 fold change, UniProt P42904 (peptide sequence: TPADFLTLVK, peptide start residue: 85) reads 0.239
# In log2 fold change, UniProt P46118 (peptide sequence: KIAFFGLGSSAAVAHDAMNK, peptide start residue: 130) reads 0.483
